Assay results

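Plate-reader measure of the Venus reporter marking one vaccinia stage in infected cells (the cell line is not named here); read time unknown.
The test concentration is not given here.
Percent change in Venus reporter signal; lower (more negative) values mean stronger inhibition of that viral stage.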

Values are in %.
The controls that fix the scale are not given here.
Common to all entries: measured here: Venus reporter, other viral stage.
This is a side read-out of the assay, for part of the compounds, not drawn at random.

For CC(C)(C)[S@@](=O)N1Cc2cc(C(=O)NCCc3ccncc3)nc(-c3cccc(-c4ccccc4)c3)c2[C@H]1CCO the result was activity change (Venus) -48.48%. With COc1ccc(C#Cc2ccc([C@@H]3[C@@H](CO)N4CCCCN(C(=O)Nc5ccccc5)C[C@@H]34)cc2)cc1 the assay gave activity change (Venus) -40.25%. For CC(=O)N1CCCCN2[C@@H](CO)[C@@H](c3ccc(-c4cccc(C)c4)cc3)[C@@H]2C1 the result was activity change (Venus) -26.88%. Result for CN(C)C(=O)[C@]1(Cc2ccccc2)N=C(c2ccc(OCCCO)cc2)O[C@@H]1c1ccccc1 was activity change (Venus) -46.44%. CC(C)C#Cc1ccc([C@H]2[C@H]3CN(C(=O)c4ccc5c(c4)OCO5)CCCCN3[C@H]2CO)cc1 gave activity change (Venus) -45.86%. C[C@@H]1CN([C@@H](C)CO)S(=O)(=O)c2ccc(/C=C/c3ccccc3)cc2O[C@@H]1CN(C)CC1CC1 gave activity change (Venus) -30.65%.

For C[C@@H]1CCCCO[C@@H](CN(C)Cc2ccc3c(c2)OCO3)[C@H](C)CN([C@@H](C)CO)C(=O)c2cc(NC(=O)Nc3ccc(F)cc3)ccc2O1 the result was activity change (Venus) -35.4%. With C[C@H](CO)N1C[C@H](C)[C@@H](CN(C)Cc2ccc(-c3ccccc3)cc2)Oc2ccc(NC(=O)C3CC3)cc2CC1=O the assay gave activity change (Venus) -67.69%. OC[C@H]1[C@H](c2ccc(C#Cc3ccccc3F)cc2)[C@H]2CN(Cc3cncnc3)CCCCN21 read activity change (Venus) -54.59%. With C[C@H](O)C#Cc1ccc2c(c1)O[C@H](CN(C)Cc1ccc(-c3ccccc3)cc1)[C@@H](C)CN([C@H](C)CO)S2(=O)=O the assay gave activity change (Venus) -68.19%. O=C(NCc1ccccc1)C1=C[C@@H](c2csc3ccccc23)C[C@@H](OCc2ccc(CO)cc2)O1 read activity change (Venus) -40.89%. For CO[C@H]1CN(C)C(=O)c2cc(NS(=O)(=O)c3cccc(F)c3)ccc2OC[C@H](C)N(Cc2cc(F)ccc2F)C[C@H]1C the result was activity change (Venus) -59.35%.

CC(=O)N(C)C[C@@H]1Oc2cc(C#Cc3ccc(F)cc3)ccc2S(=O)(=O)N([C@@H](C)CO)C[C@@H]1C read activity change (Venus) -27.54%. COc1ccccc1NC(=O)N1CCCCN2[C@@H](CO)[C@@H](c3ccc(C#CC4CC4)cc3)[C@@H]2C1 gave activity change (Venus) -56.62%. C/C=C/c1ccc2c(c1)O[C@@H](CN(C)S(=O)(=O)c1ccc(C)cc1)[C@@H](C)CN([C@@H](C)CO)S2(=O)=O read activity change (Venus) -43.01%. With CCCC#Cc1ccc2c(c1)O[C@H](CN(C)Cc1ccc3c(c1)OCO3)[C@H](C)CN([C@H](C)CO)S2(=O)=O the assay gave activity change (Venus) -78.43%. C[C@@H]1CN([C@H](C)CO)S(=O)(=O)c2ccc(-c3ccc(C#N)cc3)cc2O[C@H]1CN(C)C(=O)Nc1cc(F)ccc1F gave activity change (Venus) -29.32%. Result for N#Cc1ccc(-c2ccc([C@@H]3[C@H]4CN(C(=O)Nc5ccc(F)cc5)CCCCN4[C@H]3CO)cc2)cc1 was activity change (Venus) -27.68%.

For CN1c2ccc(-c3ccccc3)cc2[C@@H]2[C@@H](CCN2C(=O)Nc2ccccc2F)[C@@H]1CO the result was activity change (Venus) -46.94%. COc1ccc(S(=O)(=O)N(C)C[C@@H]2Oc3ncc(C#Cc4cccc(F)c4)cc3C(=O)N([C@H](C)CO)C[C@@H]2C)cc1 read activity change (Venus) -37.17%. With C[C@H]1CN([C@@H](C)CO)C(=O)Cc2cc(NS(=O)(=O)c3ccccc3)ccc2O[C@@H]1CN(C)Cc1ccc(Cl)c(Cl)c1 the assay gave activity change (Venus) -70.6%. C[C@H](CO)N1C[C@H](C)[C@H](CN(C)Cc2ccccc2)OCCCC[C@H](C)Oc2ccc(NC(=O)Nc3ccc4c(c3)OCO4)cc2C1=O gave activity change (Venus) -52.63%. C[C@H](CO)N1C[C@H](C)[C@H](CN(C)Cc2ccc(-c3ccccc3)cc2)Oc2ccc(NC(=O)CCCCCC(=O)Nc3ccccc3N)cc2CC1=O read activity change (Venus) -37.92%. With C[C@@H]1CN([C@@H](C)CO)C(=O)c2cc(-c3ccc(F)cc3)cnc2O[C@@H]1CN(C)CC1CCCC1 the assay gave activity change (Venus) -32.4%.

O=C(C[C@H]1C=C[C@H](NC(=O)CCN2CCCCC2)[C@H](CO)O1)Nc1ccc(-c2ccccc2)cc1 read activity change (Venus) -26.34%. COCCNC(=O)C[C@@H]1CC[C@@H]2[C@H](COC[C@H](O)CN2Cc2cccc(-c3ccncc3)c2)O1 gave activity change (Venus) -34.47%.

For reference, 2 entries once more:

| SMILES | activity change (Venus) (%) |
|---|---|
| `CO[C@H]1CN(C)C(=O)c2cc(NS(=O)(=O)c3cccc(F)c3)ccc2OC[C@H](C)N(Cc2cc(F)ccc2F)C[C@H]1C` | -59.35 |
| `O=C(C[C@H]1C=C[C@H](NC(=O)CCN2CCCCC2)[C@H](CO)O1)Nc1ccc(-c2ccccc2)cc1` | -26.34 |

From PubChem BioAssay record AID1053133 (Broad Institute, 2014).